{"sequences": {"note": "Amino acid sequences for entries named in this document (tags omitted). Residues count along the entry.", "UniProt P15391, residues 20-291": "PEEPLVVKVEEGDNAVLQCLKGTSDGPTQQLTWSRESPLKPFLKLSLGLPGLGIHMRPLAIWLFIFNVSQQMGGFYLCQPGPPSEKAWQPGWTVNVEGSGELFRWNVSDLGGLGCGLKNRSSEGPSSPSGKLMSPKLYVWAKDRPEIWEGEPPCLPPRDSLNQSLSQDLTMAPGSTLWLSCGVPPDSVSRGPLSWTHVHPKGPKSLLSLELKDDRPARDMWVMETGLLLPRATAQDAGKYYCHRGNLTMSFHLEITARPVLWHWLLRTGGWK"}, "source": "patent US20240358834A1", "about": "(University of Pennsylvania, published 2024)", "biological_target": "human CD19 protein with a biotinylated AviTag (Acrobiosystems) (human) (UniProt P15391)", "assay": "phage ELISA of individual clones on CD19", "note": "These are yes or no findings as the source states them, for the method shown. Some entries that bind do so weakly or less than the wild type."}
{"binder": "scFv 40 (scFv, Canine scFv (VL-linker-VH); also called P3-59B) scFv: QSVLTQPPSVSGSLGQKVTISCTGSSSSVGTHYVGWYQIPPGIGPRTVIYNNDYRPSGVPDRFSGSKSGNSATLTISGLQAEDEADYYCSSWDDSLGAYVLGSGTQLTILGGGSSRSSSSGGGGSGGGGELTLQESGPGLVKPSQTLSLTCAVSGGSVIRGYYWTWIRQRPGRGLEWMGYWAGSTDYNPAFQGRIFITAGTAKNQFSLEMTSMTTDDTAIYYCVGSLRGGWLFDNWGQGTLVTVSSASTTAPSVTSGQAGQHHHHHHGAYPYDVPDYAS", "values": [{"measurement": "binding", "value": "binds"}]}
